Assay results: patent US20260078089A1, “BIOACTIVE PHYTOCHEMICALS IN ZIZYPHUS AND GUARANA” (Phytoquest Limited, priority 2018, published 2026)
At least one structure is not confirmed: it was looked up by name or label, or the drawing left a doubt.

Assays:
[1] = tested on: β-D-glucuronidase; assay: Glycosidase assay, p-nitrophenyl substrate; type: biochemical; settings: Bovine liver enzyme; screened at 0.14 mg mL−1 (footnote: 0.4 mM)
[2] = tested on: β-D-glucosidase; assay: Glycosidase assay, p-nitrophenyl substrate; type: biochemical; settings: Almond enzyme; screened at 0.14 mg mL−1 (footnote: 0.4 mM)
Procedure: (§1) Glycosidase assays were conducted as described by Watson et al. (Phytochemistry 1997, 46, 255) using p-nitrophenyl-substrates (except sialidase which used methylumbeliferyl-N-acetyineuraminic acid as substrate). Assays were carried out in microtitre plates. Enzymes were assayed in 0.1 M citric acid/0.2 M di-sodium hydrogen phosphate (McIlvaine) buffers at the optimum pH for the enzyme. All assays were carried out at 20° C. All enzymes and substrates were purchased from Sigma Aldrich Chemicals Limited. The incubation mixture consisted of 10 μl of enzyme solution, 10 μl of the iminosugars solution and 50 μl of the appropriate 5 mM p-nitrophenyl substrate made up in McIlvaine buffer at the optimum pH for the enzyme. The reactions were stopped with 0.4 M glycine (pH 10.4) during the exponential phase of the reaction. Absorbances were read at 405 nm. Water was substituted for the alkaloids in the blanks. Reactions were carried out in triplicate.
(§2) Enzyme inhibitor solutions—Compounds were dissolved in distilled water at a concentration of 1 mg mL^−1 and then screened at a concentration of 0.14 mg mL^−1 after dilution of the 1 mg mL^−1 in the assay volumes of substrates.

[3] = tested on: N-acetyl-β-D-glucosaminidase; assay: Glycosidase assay, p-nitrophenyl substrate; type: biochemical; settings: screened at 0.14 mg mL−1 (footnote: 0.4 mM)
Procedure: as §1, §2

[4] = tested on: β-D-mannosidase; assay: Glycosidase assay, p-nitrophenyl substrate; type: biochemical; settings: Cellullomonas fimi enzyme; screened at 0.14 mg mL−1 (footnote: 0.4 mM)
Procedure: as §1, §2

[5] = tested on: male ddy mouse; assay: Sucrose loading test, blood glucose in mice; type: in vivo; settings: sucrose challenge
Procedure: (§3) The animal experimental protocols in this study were approved by the Animal Experiments Committee of the University of Toyama (S-2010 UH-2). Male ddy mice (29-33 g) after an overnight fast were used for acute disaccharide loading tests. Maltose (2.5 g/kg body weight) or Sucrose (2.5 g/kg body weight) as well as the test samples were dissolved in 0.9% NaCl solution and administered to mice via a stomach tube. A control group was loaded with saline only.
(§4) Blood samples for glucose measurements were obtained from the tail vein at 0, 15, 30, 60, and 120 min after disaccharide-loading. The blood glucose levels were measured by a portable kit, Antsence II™ (Sankyo Co. Ltd. Tokyo, Japan). The Zizyphus extract HS0810/142/41 as well as the purified compounds were tested in this way.

[6] = tested on: glucosidases; assay: Glycosidase panel, glucosidases overall; type: biochemical; settings: panel of glucosidases
Procedure: Glycosidase assays were conducted on Compounds 1 and 3 and an extract of Zizyphus used in the disaccharide loading mouse studies to determine if glucosidase inhibition might explain the effects on blood glucose. A panel of glycosidases were used to be sure any activity found was a selective inhibition and not just non-specific binding to the enzyme.
as §1, with “triplicate. […]” for “triplicate.”

[7] = tested on: male ddy mouse; assay: Maltose loading test, blood glucose in mice; type: in vivo; settings: disaccharide challenge with maltose
Procedure: as §3, §4

[8] = tested on: TNF-α; assay: LPS-stimulated TNF-α production in human whole blood; type: cell-based; settings: LPS 10 μg/ml, ELISA, not significant at the low μM concentrations used
[9] = tested on: Naringinase; assay: Glycosidase assay, p-nitrophenyl substrate; type: biochemical; settings: Penicillium decumbens enzyme; screened at 0.14 mg mL−1 (footnote: 0.4 mM)
Procedure: as §1, §2

Compound	% inhibition [1]	% inhibition [2]	% inhibition ([3]; Bovine kidney enzyme)	% inhibition ([3]; Jack bean enzyme)	% inhibition [4]	effect on blood glucose levels (in words) [5]	glucosidase inhibition (in words) [6]	effect on blood glucose levels (in words) [7]	LPS-stimulated TNF-α production (in words) [8]	% inhibition [9]
CN1C[C@](O)(CO)C[C@H]1C(=O)O [Compound 3, N-methyl-4-hydroxy-4S-(hydroxymethyl)-2S-pyrrolidinecarboxylic acid]	−5%	<5%	<5%	−5%	<5%	more complex effect with a faster drop at 30 minutes but an apparent increase in blood glucose early on in the sucrose challenge	No glucosidase inhibition			
CN1C[C@@H](CO)C[C@H]1C(=O)O [Compound 1, N-methyl-4S-(hydroxymethyl)-2S-pyrrolidinecarboxylic acid]	<5%	15%	<5%	<5%	<5%		No glucosidase inhibition	lowering effect on blood glucose levels	mean value trend towards reducing the production of LPS-stimulated TNF-α in a concentration-dependent manner	11%
